This note sets out measurements from publication PMC8640933.

No constants are given. Whether binding was seen depends on the method and setting. For part of these data: Binding can be weak; no strength is given. Tags and fused reporters may be left off the sequences shown. For part of these data: Binding seen in cells or lysates may run through a third protein.

Test [1] concerns the target T1, peptide derived from Cnp20^15-40 (Schizosaccharomyces pombe) (UniProt Q9HGK9).
T1 sequence (peptide): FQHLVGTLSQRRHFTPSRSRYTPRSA
In words: pull-down; in vitro; peptides derived from Cnp20 pull down purified Ccp1; 'nonstringent conditions with much higher protein levels'; both purified.

Test [2] concerns the target T2, peptide derived from Cnp20^31-56 (Schizosaccharomyces pombe) (UniProt Q9HGK9).
T2 sequence (peptide): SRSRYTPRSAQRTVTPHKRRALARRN
Described as above.

For test [3], the target named is T3, BD-Cnp20-N (aa 1 to 368) (Schizosaccharomyces pombe) (UniProt Q9HGK9).
T3 sequence: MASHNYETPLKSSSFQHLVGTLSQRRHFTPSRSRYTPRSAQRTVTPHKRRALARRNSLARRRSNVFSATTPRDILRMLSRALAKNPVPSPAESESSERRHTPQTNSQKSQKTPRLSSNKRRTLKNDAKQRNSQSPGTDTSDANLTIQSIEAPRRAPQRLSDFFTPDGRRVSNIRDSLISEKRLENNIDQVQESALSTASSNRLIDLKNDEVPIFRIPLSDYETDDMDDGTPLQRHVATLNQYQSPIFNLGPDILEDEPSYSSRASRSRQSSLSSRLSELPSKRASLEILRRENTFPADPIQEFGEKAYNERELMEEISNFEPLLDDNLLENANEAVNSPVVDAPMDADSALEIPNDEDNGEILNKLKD
In words: two-hybrid; in S. cerevisiae; spotted on SD -LT or SD -LTH with 60 mM or 75 mM 3-AT, 30 °C; AD and BD fusions.

The target in test [4] is T4, BD-Cnp20 (full-length CENP-T^Cnp20, yeast two-hybrid fusion) (Schizosaccharomyces pombe) (UniProt Q9HGK9).
T4 sequence: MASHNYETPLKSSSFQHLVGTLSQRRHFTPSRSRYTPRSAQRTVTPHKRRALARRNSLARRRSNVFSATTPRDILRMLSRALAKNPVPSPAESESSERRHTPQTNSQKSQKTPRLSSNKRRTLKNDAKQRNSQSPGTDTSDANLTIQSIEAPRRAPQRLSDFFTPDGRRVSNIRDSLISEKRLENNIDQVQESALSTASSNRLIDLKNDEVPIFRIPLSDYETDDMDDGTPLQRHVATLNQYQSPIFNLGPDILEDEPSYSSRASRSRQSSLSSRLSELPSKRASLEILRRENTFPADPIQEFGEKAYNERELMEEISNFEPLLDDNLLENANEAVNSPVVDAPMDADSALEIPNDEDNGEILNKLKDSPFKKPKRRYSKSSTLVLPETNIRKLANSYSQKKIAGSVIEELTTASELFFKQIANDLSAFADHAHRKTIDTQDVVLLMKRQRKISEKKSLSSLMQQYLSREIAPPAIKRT
The description is as above.

The target of test [5] is T5, CENP-T^Cnp20-TAP (Schizosaccharomyces pombe) (UniProt Q9HGK9).
T5 sequence: T4 sequence
The experiment in a line: co-IP; lysates of S. pombe cells expressing GFP-Ccp1 and CENP-T^Cnp20-TAP, immunoprecipitated with an antibody specific for TAP, Western blot; cells expressing GFP-Ccp1 only as control. Background: Immunoblotting shows a protein as a band on a membrane.

Test [6] has as its target T6, CENP-T^Cnp20 aa 1 to 44 (yeast two-hybrid fusion) (Schizosaccharomyces pombe) (UniProt Q9HGK9).
T6 sequence: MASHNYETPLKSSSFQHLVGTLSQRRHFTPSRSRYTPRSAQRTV
The experiment in a line: two-hybrid; in S. cerevisiae; spotted on SD -LT or SD -LTH with 60 mM or 75 mM 3-AT, 30 °C; AD and BD fusions.

In test [7] the target is T7, CENP-T^Cnp20 aa 1 to 88 (yeast two-hybrid fusion) (Schizosaccharomyces pombe) (UniProt Q9HGK9).
T7 sequence: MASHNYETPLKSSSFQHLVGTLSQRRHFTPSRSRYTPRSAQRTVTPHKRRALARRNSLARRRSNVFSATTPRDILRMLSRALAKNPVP
Described as above.

For test [8], the target named is T8, CENP-T^Cnp20 aa 1 to 55 (CIM domain, yeast two-hybrid fusion) (Schizosaccharomyces pombe) (UniProt Q9HGK9).
T8 sequence: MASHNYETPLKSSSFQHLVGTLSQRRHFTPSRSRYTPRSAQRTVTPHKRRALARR
The test is described as above.

Test [9] concerns the target T9, Cnp20-C (aa 369 to 479) (Schizosaccharomyces pombe) (UniProt Q9HGK9).
T9 sequence: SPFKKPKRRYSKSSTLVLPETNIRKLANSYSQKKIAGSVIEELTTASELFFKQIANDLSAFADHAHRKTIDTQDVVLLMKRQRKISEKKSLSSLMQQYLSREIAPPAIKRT
The test is described as above.

Test [10] has as its target T10, CENP-T^Cnp20 aa 16 to 55 (yeast two-hybrid fusion) (Schizosaccharomyces pombe) (UniProt Q9HGK9).
T10 sequence: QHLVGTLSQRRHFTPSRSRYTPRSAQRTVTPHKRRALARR
The test is described as above.

With “purified full-length Ccp1 (Schizosaccharomyces pombe)”, the binding entry in test [1] and in [2] was “binds” each time.

Take “AD-Ccp1-4A (homodimer mutant, yeast two-hybrid fusion) (Schizosaccharomyces pombe)”: the binding entry in [3] and in test [4] was “no binding” in each case.

Regarding GFP-Ccp1 (Schizosaccharomyces pombe), the binding entry in [5] is given as “binds”.

Consider “AD-Ccp1 (yeast two-hybrid fusion) (Schizosaccharomyces pombe)”, for which the binding result is “binds” in [3]; “binds weakly” in [6]; “binds” in [7]; “binds” in test [4]; “binds” in test [8]; “no binding” in [9]. In test [10], the binding entry was “binds weakly”.
